# Laboratory results reported in PubChem BioAssay AID504444 (National Center for Advancing Translational Sciences (NCATS), 2011).
# Hit rate of the full screen: of about 360,000 compounds, about 7,500 (2.1%) were called active. Inconclusive means that the source gave no clear call. Such entries were picked first, then a sample of the others. Calls follow the shape of the dose curve; as a rule, active = well fitted inhibition curve with a large enough effect; inconclusive = small, poorly fitted or top-dose-only effect, or effect the other way; inactive = flat fitted curve, though single readings scatter. A potency beside an inconclusive call is a rough fit, not a confirmed value.
# Test: Nrf2 qHTS screen for inhibitors; also: nearly all actives have a fitted effect of over 60% in size
# Conditions: A549 ARE-Fluc reporter, luciferase luminescence, 18-24 h; series mostly up to 46 µM
# Method in brief: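 Nrf2 function is reported as luminescence of an ARE-controlled luciferase in A549 cells. Compounds were tested at several concentrations, and a CellTiter-Fluor read on the same wells flagged cytotoxicity.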
# Potency is read from the fitted curve at half-maximal effect.
row,Structure (SMILES),Potency
1,CCOC(=O)Nc1cccc(OCC(=O)Nc2ccccc2OCC)c1,"inconclusive: 29.1 µM [falling, single point]"
2,CC(C)/C=C1\CCc2c([nH]c3ccccc23)C1=O,"inconclusive: 16.4 µM [activator, single point]"
3,Cc1ccc(-c2nc3c(c(SCc4ccc(Br)cc4)n2)Cc2c(CO)cnc(C)c2O3)cc1,"inconclusive: 18.4 µM [falling, partial curve, poor fit]"
4,CCOc1cc(NS(=O)(=O)CC)c(OCC)cc1NC(=O)c1ccco1,inactive
5,Cc1c(OCC(=O)N2C[C@H]3C[C@@H](C2)c2cccc(=O)n2C3)ccc2c3c(c(=O)oc12)CCCC3,"inconclusive: 18.4 µM [falling, partial curve, poor fit]"
6,COc1ccc(N2C(=O)CC(Sc3nc(C)c4c(n3)CCCC4)C2=O)cc1 (configuration not stated),"inconclusive: 8.2 µM [falling, partial curve, poor fit]"
7,CCC(C)Nc1nc(N)c([N+](=O)[O-])c(Nc2cc(OC)ccc2OC)n1 (configuration not stated),"inconclusive: 18.4 µM [falling, single point]"
8,O=C(c1ccc2c(c1)N(Cc1ccccc1)C(=O)c1ccccc1S2)N1CCCC1,"inconclusive: 29.1 µM [falling, single point]"
9,COc1ccc(C2Nc3ccccc3C(=O)N2c2ccc(C)cc2)cc1COc1ccccn1 (configuration not stated),"inconclusive: 9.2 µM [activator, partial curve]"
10,Cc1ccc(Cc2nc(-c3cccc(C)c3)no2)cc1,"inconclusive: 9.2 µM [activator, partial curve]"
11,CC(CCCN(C)C)C(Cc1ccccc1)c1ccccc1 (configuration not stated),"inconclusive: 29.1 µM [activator, partial curve, poor fit]"
12,O=C(COc1ccc(F)cc1Br)Nc1ccccc1N1CCOCC1,"inconclusive: 29.1 µM [falling, single point]"
13,COc1ccc(C(=O)C2CCCN(C(=O)Cn3ccc(C)n3)C2)cc1OC (configuration not stated),"inconclusive: 0.82 µM [falling, full curve, poor fit]"
14,CCSc1nn(CC(=O)Nc2cccc(CC)c2)c(N)c1S(=O)(=O)c1ccccc1,"inconclusive: 20.6 µM [falling, single point]"
15,O=C(/C=C/c1ccc2c(c1)OCO2)c1ccc(O)cc1O,"inconclusive: 29.1 µM [activator, single point]"
16,CCc1ccc(NC(=O)c2noc(C(C)C)c2[N+](=O)[O-])cc1,"inconclusive: 25.9 µM [activator, partial curve, poor fit]"
17,O=C(Oc1cccc2cccnc12)c1cccc(-n2cnnn2)c1,"inconclusive: 7.31 µM [falling, single point]"
18,O=C(/C=C/c1cccc(OCc2ccccc2)c1)c1cccnc1,"inconclusive: 14.6 µM [activator, partial curve, poor fit]"
19,CCN1C(=NCCCOC(C)C)N[C@@H](CCc2ccccc2)[C@H](C(=O)NCCCOC(C)C)[C@H]1C,"inconclusive: 14.6 µM [falling, single point]"
20,Cc1oc(-c2ccc(Cl)cc2)nc1CN1CCCC(C(=O)NCCc2ccc(Cl)cc2)C1 (configuration not stated),"inconclusive: 29.1 µM [falling, single point]"
21,COc1ccc(C2Nc3ccccc3C(=O)N2Cc2ccco2)cc1COc1ccc(F)cc1 (configuration not stated),"inconclusive: 16.4 µM [falling, single point]"

row,Structure (SMILES),Potency
1,Cn1c2ccccc2c(=O)c2ccc(-c3ccc4c(c3)OCO4)cc21,"inconclusive: 2.31 µM [activator, partial curve, poor fit]"
2,COc1ccc(NC(=O)c2cc(-c3ccncc3)nc3ccc(Br)cc23)cc1OC,"inconclusive: 20.6 µM [falling, single point]"
3,CCN(CC)S(=O)(=O)c1ccc(C)c(NC(=S)N2CCN(C/C=C/c3ccccc3)CC2)c1,active: 11.6 µM
4,COc1ccc(C)cc1NC(=O)c1ccc(NS(=O)(=O)c2c(C)noc2C)cc1,"inconclusive: 13 µM [falling, partial curve, poor fit]"
5,COC(=O)[C@@]1(Cc2ccc(F)cc2)[C@H]2c3cc(C(=O)N(C)C)n(Cc4nc5ccccc5[nH]4)c3C[C@H]2CN1C(=O)c1ccccc1,"inconclusive: 29.1 µM [falling, single point]"
6,COc1ccc(-c2noc(CN(C)S(=O)(=O)c3c(C)cc(C)cc3C)n2)cc1OC,"inconclusive: 20.6 µM [falling, single point]"
7,CC(Sc1nc(N)cc(=O)[nH]1)C(=O)Nc1sc2c(c1C#N)CCCC2 (configuration not stated),active: 13 µM
8,Cc1ccc(N=Cc2c(C)[nH]n(-c3nc4ccccc4[nH]3)c2=O)cc1,active: 20.6 µM
9,O=C(CSc1nnc(-c2ccccc2F)o1)NC(=O)Cc1ccccc1,inactive
10,CC(=O)N1c2ccccc2C(=O)C1N1CCN(c2ccccc2F)CC1 (configuration not stated),"inconclusive: 29.1 µM [falling, single point]"
11,Cc1ccc(S(=O)(=O)N2CC(O)C[C@H]2C(=O)OCC(=O)Nc2ccc(N3CCCCC3)cc2)cc1C (some centres not stated),"inconclusive: 16.4 µM [activator, partial curve, poor fit]"
12,CCn1cc(C(=O)NCC(C)C)c(=O)c2cc(F)c(N3CCN(C(=O)c4ccco4)CC3)cc21,inactive
13,COc1ccc2oc(C(=O)NCCC(C)C)c(C)c2c1,"inconclusive: 7.31 µM [activator, partial curve]"
14,CCOc1ccc(N2C(=O)S/C(=C\c3cc(OC)c(OC)c(OC)c3)C2=O)cc1,"inconclusive: 29.1 µM [falling, single point]"
15,CCc1nc2ccc(C)cc2c(C(=O)Oc2cccc3cccnc23)c1C,"inconclusive: 23.1 µM [falling, single point]"
16,CC(C)(C)OC(=O)N1CCC(c2c(C(=O)NCc3ccccc3)cnn2-c2cccc(F)c2)CC1,"inconclusive: 29.1 µM [falling, single point]"
17,c1ccc(Nc2nc(-c3cccnc3)cs2)nc1,"inconclusive: 1.46 µM [activator, partial curve, poor fit]"
18,Cc1ncc(CN2CCN(C3CCCC3)C(CCO)C2)s1 (configuration not stated),inactive
19,CCCCCC(=O)NNC(=S)NC(=O)c1ccccc1[N+](=O)[O-],active: 23.1 µM
20,CCCCn1cc(S(=O)(=O)c2ccc(C)cc2)c(=O)c2cc(F)c(N3CCCCC3)cc21,"inconclusive: 18.4 µM [falling, single point]"
21,CCn1c(CNC(=O)COc2ccc(C(C)C)cc2)nnc1SCC(=O)NC1CCCCC1C (configuration not stated),"inconclusive: 14.6 µM [falling, partial curve, poor fit]"

# In a second layout: 3 of the compounds above.
row | Structure (SMILES) | Potency
1 | Cn1c2ccccc2c(=O)c2ccc(-c3ccc4c(c3)OCO4)cc21 | inconclusive: 2.31 µM [activator, partial curve, poor fit]
2 | COc1ccc(NC(=O)c2cc(-c3ccncc3)nc3ccc(Br)cc23)cc1OC | inconclusive: 20.6 µM [falling, single point]
3 | CCN(CC)S(=O)(=O)c1ccc(C)c(NC(=S)N2CCN(C/C=C/c3ccccc3)CC2)c1 | active: 11.6 µM

# Going on with the list:

row,Structure (SMILES),Potency
1,CCOc1cc(/C=N/NC(=O)c2ccccc2OCc2ccc(F)cc2)ccc1O,inactive
2,c1ccc(-c2noc(-c3ccc4c(c3)OCO4)n2)cc1,"inconclusive: 0.58 µM [activator, partial curve, poor fit]"
3,CC1(C)CC(NC(=O)C(c2ccccc2)c2ccccc2)CC(C)(C)N1,"inconclusive: 0.206 µM [activator, partial curve]"
4,Cc1nn(C)c2c1c(C(F)(F)F)cc(=O)n2C(C)C(=O)Nc1ccccc1F (configuration not stated),"inconclusive: 13 µM [falling, single point]"
5,CCOc1cc(/C=N/N=C2/NC(=O)C(CC(=O)O)S2)ccc1OS(=O)(=O)c1ccc(C)cc1 (configuration not stated),"inconclusive: 7.31 µM [falling, single point]"
6,COCCn1c(=S)[nH]c2sc3c(c2c1=O)CCCC3,"inconclusive: 29.1 µM [falling, single point]"
7,C=CC[C@H](CC(=O)N(CCO)Cc1ccccc1)C(=O)N[C@H](COC(=O)[C@@H](CC=C)Cc1ccc(F)cc1)C(C)(C)C,"inconclusive: 18.4 µM [falling, single point]"
8,CCC(C)n1c(SCC(=O)/C(C#N)=C(\C)N)nc2ccccc2c1=O (configuration not stated),"inconclusive: 9.2 µM [falling, partial curve, poor fit]"
9,Cc1ccc(C2CC(c3ccco3)n3ncnc3N2)cc1 (configuration not stated),inactive
10,COc1ccc(/C=N/Nc2cc(C)nc(-n3nc(C)cc3C)n2)cc1,"inconclusive: 29.1 µM [falling, single point]"
11,Cc1ccc(S(=O)(=O)Nc2ccc3ncccc3c2)cc1,"inconclusive: 4.61 µM [falling, full curve, poor fit]"
12,CC(C)c1nc(N2CCCC2)c(C#N)c2c1CCCC2,"inconclusive: 18.4 µM [activator, single point]"
13,CO/N=C\CC(=O)Nc1ccc(F)cc1,"inconclusive: 20.6 µM [activator, single point]"
14,Cc1ccccc1/C=C/c1nc2ccccc2c(=O)[nH]1,"inconclusive: 13 µM [activator, partial curve]"
15,CSc1sc(-c2nnc(SCC(=O)Nc3ccc(Cl)cc3)n2C)c2c1C=CCC2,"inconclusive: 16.4 µM [falling, partial curve, poor fit]"
16,CC(=O)/C(=N\Nc1ccccc1)Oc1ccc(Br)cc1,inactive
17,COc1cc(C(=O)Nc2ccc(NC(=O)c3ccco3)nc2)cc(OC)c1OC,"inconclusive: 6.51 µM [falling, single point]"
18,COc1ccc(S(=O)(=O)N2CCCCC2)cc1NC(=O)c1cccc(S(=O)(=O)N2CC(C)OC(C)C2)c1 (configuration not stated),"inconclusive: 32.6 µM [falling, single point]"
19,COc1ccc(S(=O)(=O)N2CCOC2CNC(=O)C(=O)NCCc2c[nH]c3ccccc23)cc1 (configuration not stated),active: 7.31 µM
20,C[C@H](CO)N1C[C@H](C)[C@@H](CN(C)Cc2ccc(-c3ccccc3)cc2)Oc2c(NC(=O)Cc3ccccc3)cccc2C1=O,"inconclusive: 29.1 µM [falling, single point]"
